According to PubChem BioAssay AID2685 (National Center for Advancing Translational Sciences (NCATS), 2010):
This is one part of the list. Shown are side measurements of this screen, not its main read-out; they come without a call. Compounds called inactive in the main read-out are mostly missing here. Potencies come from curve fits of mixed quality, noted in brackets.

Experiment: qHTS Assay for Lipid Storage Modulators in Drosophila S3 Cells;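 for cell number change: cells counted by Cell Tracker Red CMTPX staining in the red channel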
Conditions: BODIPY lipid droplet fluorescence, 18-24 h; for cell number change: measured here: cell count max response, cells fed with added oleic acid
Procedure, shortened: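 Laser-scanning cytometry quantifies lipid droplet accumulation (500–530 nm total intensity; droplet/cell object ratio) in oleic acid-fed (400 uM added) Drosophila S3 cells treated with a concentration series. 20 uM Triacsin C defined 100% inhibition.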

[1] = measured here: cell number channel AC50, cells fed with added oleic acid
[2] = measured here: lipid fluorescence (Fed channel) AC50, cells fed with added oleic acid

| Compound | cell number change | AC50 [1] | AC50 [2] |
| --- | --- | --- | --- |
| CC(C)C(NS(=O)(=O)c1cccs1)C(=O)NCc1ccc2c(c1)OCO2 (stereo not given) | 32.8% | 32.6 µM [rising, single point] | – |
| CC1(C)Oc2ccc3ccc(=O)oc3c2[C@@H](O)[C@H]1O | 14.9% | – | 0.00461 µM [rising, full curve, poor fit] |
| CC(C)N(Cc1nc(-c2ccccc2)no1)S(=O)(=O)c1ccccc1 | 16.3% | – | 25.9 µM [falling, single point] |
| COc1ccc2nc(C)cc(SCC(=O)N/N=C/c3ccc(O)cc3O)c2c1 | -12.4% | – | 16.4 µM [falling, single point] |
| O=C(C[n+]1cc(-c2ccc(Cl)cc2)n2c1CCCCC2)c1ccccc1 | -6.67% | – | – |
| COC(=O)c1cc(C)sc1NC(=S)N1CCN(CCc2ccccc2)CC1 | -11.7% | 6.51 µM [falling, single point] | 4.11 µM [falling, full curve, poor fit] |
| Cc1nnc(SCC(=O)N2c3ccccc3CC2C)s1 (stereo not given) | – | 2.31 µM [rising, partial curve] | – |
| C=CCOc1ccccc1CN1CCC(n2nccc2NC(=O)C2CC2)CC1 | -7.73% | – | 4.11 µM [rising, full curve] |
| Cc1cc(Oc2ccc(C(C)(C)C)cc2)nc(N2CCOCC2)n1 | 25.3% | – | – |
| CCN(CC)CCNC(C(=O)Nc1ccc([N+](=O)[O-])cc1Br)c1ccccc1 (stereo not given) | -5.03% | – | – |
| CC(OC(=O)c1oc2ccccc2c1CSC1CCCCC1)C(=O)NC(N)=O (stereo not given) | 3.86% | – | – |
| Cc1ccc(S(=O)(=O)Cc2ccc(C(=O)N3CCCCC3C)cc2)cc1 (stereo not given) | 30.3% | – | – |
| CC(C)(C)C(=O)CSc1nnc(Nc2ccccc2)s1 | -35.8% | 29.1 µM [falling, single point] | – |
| O=c1c2cn[nH]c2nc(SCc2ccccc2F)n1-c1ccc(Br)cc1 | 2.49% | 3.26 µM [rising, single point] | 3.26 µM [rising, partial curve] |
| CC(C)(O)[C@H](O)COc1c2occc2cc2ccc(=O)oc12 | 17.1% | – | 0.366 µM [rising, full curve] |
| CN(C)c1nc(N2CCOCC2)nc(N(c2ccccc2)c2ccccc2)n1 | -1.04% | – | – |
| Cc1cccc(/C=N/N2CCN(c3ccccc3)CC2)c1 | 42.7% | 20.6 µM [rising, single point] | – |
| CNC(=O)c1c(O)c2cccc3c2n(c1=O)CCC3 | -14% | – | 0.146 µM [rising, full curve, poor fit] |
| Cc1nn(CC(=O)NCCCN2CCCC2)c(=O)c2nn(-c3ccccc3)c(C)c12 | -11% | – | – |
| CCC(CC)C(=O)Nc1cccc(C(=O)N2CCOCC2)c1 | -9.53% | – | 1.46 µM [falling, full curve] |
| N#Cc1nc(-c2cccc3ccccc23)oc1N | -23.2% | – | – |

| Compound | cell number change | AC50 [1] | AC50 [2] |
| --- | --- | --- | --- |
| CNC(=O)Cn1ncc2c(C)n(Cc3ccc(C)cc3)c(C)c2c1=O | -3.57% | – | – |
| COc1ccc(C(=O)C2CCCN(C(=O)c3cc(C)nc(C)n3)C2)cc1OC (stereo not given) | 0.408% | – | 16.4 µM [rising, single point] |
| COc1ccc(-c2cc(C(=O)N3CCN(c4ncccn4)CC3)c3ccccc3n2)cc1OC | -20.8% | – | – |
| CC(Sc1nnc(Cc2cccs2)n1C1CCCCC1)C(=O)N1CCc2ccccc21 (stereo not given) | – | 1.46 µM [rising, partial curve] | – |
| O=C(NCc1cccnc1)c1cc2nc(-c3ccc4c(c3)OCO4)cc(C(F)(F)F)n2n1 | 22.3% | – | 0.00461 µM [rising, full curve, poor fit] |
| Nn1c(COc2cccc(Br)c2)nnc1SCC(=O)NCC1CCCO1 (stereo not given) | -3.63% | – | 6.51 µM [rising, single point] |
| CCC1C(=O)N=C(SCC(=O)Nc2ccc(S(N)(=O)=O)cc2)NC1=O (stereo not given) | – | – | 0.103 µM [falling, full curve, poor fit] |
| O=C(Nc1cc(=O)[nH]c2ncnn12)c1ccco1 | -1.81% | – | 1.64 µM [falling, partial curve, poor fit] |
| NC(=O)c1ccsc1NC(=O)COC(=O)Cc1cccc2ccccc12 | -4.69% | 0.411 µM [rising, full curve, poor fit] | 10.3 µM [falling, partial curve] |
| CC(C)CNS(=O)(=O)c1cc(C(=O)OCC(=O)N2CCOCC2)c(Cl)cc1Cl | 3.15% | – | 0.82 µM [rising, full curve] |
| O=C(Cn1nnc(-c2ccc(Cl)cc2)n1)NCCC1=CCCCC1 | -0.825% | – | 0.146 µM [rising, single point] |
| Cc1ccc(S(=O)(=O)NCc2ccccc2)cc1C(=O)N(C)Cc1ccccc1F | -23.7% | – | 20.6 µM [falling, partial curve] |
| O=C(CS(=O)(=O)c1ccccc1)N(CCCN1CCOCC1)c1nc2c(F)cccc2s1 | 13.3% | – | – |
| Cc1[nH]c2ccccc2c1CN1CCN(c2ccccn2)CC1 | 20.5% | 0.00517 µM [rising, full curve, poor fit] | – |
| CC(C)NC(=O)COC(=O)C1CSC2(c3ccc(Br)cc3)CCC(=O)N12 (stereo not given) | -35.3% | 0.00461 µM [falling, full curve, poor fit] | 0.00461 µM [falling, full curve, poor fit] |
| Cc1cccc(NC(=O)CN2CCSc3ccccc32)c1 | -16.8% | 0.82 µM [falling, single point] | 6.51 µM [rising, partial curve, poor fit] |
| COc1cc(NC(=S)NN2CCN(C)CC2)cc(OC)c1 | -43.3% | 3.66 µM [falling, full curve] | 3.66 µM [falling, full curve] |
| Cc1cccc(C)c1OCCNC(=O)c1ccc2ccccc2n1 | -46.5% | 0.231 µM [falling, full curve] | – |
| Cc1cccc(NCN2C(=O)C3C4C=CC(C4)C3C2=O)c1 (stereo not given) | 16% | – | 0.13 µM [falling, full curve, poor fit] |
| COc1ccc(Cl)cc1-c1nc(-c2ccc(NC(=O)c3cccs3)cc2)no1 | -19.3% | 0.58 µM [falling, full curve, poor fit] | 23.1 µM [falling, single point] |
| COCCn1c(SCC(N)=O)nnc1-c1c[nH]c2ccccc12 | -10.6% | – | 16.4 µM [rising, single point] |

| Compound | cell number change | AC50 [1] | AC50 [2] |
| --- | --- | --- | --- |
| CC(C)CC(=O)N/C(N)=N/c1nc2ccccc2o1 | 6.25% | – | 0.82 µM [rising, full curve, poor fit] |
| C/C(CC(=O)Nc1ccc(Cl)cc1C(F)(F)F)=N\NC(=O)c1ccccn1 | 30.2% | 0.00461 µM [rising, full curve, poor fit] | 29.1 µM [falling, single point] |
| Cc1sc2ncnc(NCCCn3ccnc3)c2c1C | -18.6% | – | – |
| COc1ccc(/C=C(\NC(=O)c2ccco2)C(=O)N2CCCCC2)cc1 | 20.2% | – | 6.51 µM [rising, single point] |
| CCN(CC)CCN1C(=O)C(O)=C(C(=O)c2cc3cccc(OC)c3o2)C1c1ccc(F)cc1 (stereo not given) | -44.8% | 18.4 µM [falling, single point] | 29.1 µM [falling, single point] |
| C=CCn1c(C)cc(C(=O)CN2C(=O)c3ccccc3C2=O)c1C | 74.1% | – | – |
| COc1ccccc1CNC(=O)COC(=O)C12CC3CC(CC(O)(C3)C1)C2 | -46.3% | 0.82 µM [falling, partial curve] | 0.58 µM [falling, full curve, poor fit] |
| COc1cc(/C=C/C(=O)OCC(=O)N2CCCC2)ccc1OCC#N | -8.77% | 4.11 µM [rising, single point] | 6.51 µM [falling, single point] |
| CNc1nc(OC)nc(N2CCOCC2)n1 | -8.67% | – | 0.82 µM [falling, full curve, poor fit] |
| COc1ccc(Cc2cnc(N)s2)cc1 | 2.39% | – | – |
| CCOc1ccc(C(=O)NC2CCN(C(=O)Nc3ccc(F)cc3)CC2)cc1 | 41.2% | 4.11 µM [rising, partial curve, poor fit] | – |
| Cc1cccc(C)c1NC(=O)CNC(=O)CNC(=O)c1ccc2c(c1)OCO2 | – | 0.146 µM [rising, partial curve, poor fit] | 0.103 µM [rising, full curve] |
| CC(C(=O)N1CCc2ccccc21)N1CCN(c2cccc(C(F)(F)F)c2)CC1 (stereo not given) | 70.5% | 10.3 µM [rising, partial curve] | 14.6 µM [rising, partial curve] |
| O=C(NCc1ccc2c(c1)OCO2)C1CC(c2ccc(Cl)cc2)=NO1 (stereo not given) | -21.7% | – | – |
| CC(C)(C)OC(=O)CNC(=O)c1nc[nH]c1C(=O)N1CCNCC1 | 24.8% | – | 3.66 µM [rising, full curve] |
| O=C(CN1CCCc2ccccc21)NCc1ccc2c(c1)OCO2 | -6.14% | 6.51 µM [rising, single point] | 16.4 µM [rising, single point] |
| C/C(=N/n1cnnc1)c1cccnc1 | -22.6% | – | 4.61 µM [falling, partial curve] |
| CCOc1ccc(C(=O)OCCCN(C)C)cc1 | -61.5% | 9.2 µM [falling, partial curve] | 0.00411 µM [falling, full curve, poor fit] |
| CCOc1ccc(C(=O)Nc2ncn[nH]2)cc1 | 0.275% | – | 29.1 µM [falling, single point] |
| O/N=C/c1cc2ccccc2n1Cc1ccccc1F | -14.2% | – | 0.731 µM [falling, partial curve] |

Of the compounds above, two have a cyano group.

| Compound | cell number change | AC50 [1] | AC50 [2] |
| --- | --- | --- | --- |
| N#Cc1nc(-c2cccc3ccccc23)oc1N | -23.2% | – | – |
| COc1cc(/C=C/C(=O)OCC(=O)N2CCCC2)ccc1OCC#N | -8.77% | 4.11 µM [rising, single point] | 6.51 µM [falling, single point] |
